Test results reported in patent US20110039331A1 (OSAKA UNIVERSITY, published 2011).
These are yes or no findings as the source states them, for the method shown. Some binding calls cover weakened binding; strength is not graded here.

Amino acid sequences for entries named in this document (tags omitted). A change or cut given only in a name is not applied to a line headed by its entry.
UniProt P01241: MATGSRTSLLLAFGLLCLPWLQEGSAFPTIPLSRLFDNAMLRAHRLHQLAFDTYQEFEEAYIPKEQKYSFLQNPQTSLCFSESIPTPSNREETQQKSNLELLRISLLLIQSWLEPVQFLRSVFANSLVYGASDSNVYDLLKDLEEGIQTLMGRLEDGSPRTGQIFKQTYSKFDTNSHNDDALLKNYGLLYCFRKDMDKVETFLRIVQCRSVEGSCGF
UniProt P02679: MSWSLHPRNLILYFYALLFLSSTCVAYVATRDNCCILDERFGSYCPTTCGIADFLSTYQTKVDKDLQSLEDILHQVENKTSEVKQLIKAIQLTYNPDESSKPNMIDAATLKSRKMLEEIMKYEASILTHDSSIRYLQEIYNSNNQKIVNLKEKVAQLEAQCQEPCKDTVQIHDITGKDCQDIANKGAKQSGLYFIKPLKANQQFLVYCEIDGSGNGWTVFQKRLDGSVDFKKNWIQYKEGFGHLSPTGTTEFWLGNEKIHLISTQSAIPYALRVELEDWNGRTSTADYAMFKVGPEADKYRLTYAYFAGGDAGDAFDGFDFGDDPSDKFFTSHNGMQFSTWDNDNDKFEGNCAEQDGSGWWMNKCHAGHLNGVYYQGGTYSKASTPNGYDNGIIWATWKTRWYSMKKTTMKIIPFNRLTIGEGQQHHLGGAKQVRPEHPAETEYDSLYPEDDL

How the values were obtained:
[1] = biological target: T1, hGH-BAS-γC-P4×3, human growth factor/human fibrinogen γ chain C domain fusion protein with 3 repeats of the P4 sequence (human) (UniProt P01241+P02679); experiment: pull-down from culture supernatant with P20.1 antibody-Sepharose, elution with eluents (1) to (8) of paragraph 187, SDS gel electrophoresis [a]
[2] = biological target: T2, hGH-BAS-γC-P4×5, human growth factor/human fibrinogen γ chain C domain fusion protein with 5 repeats of the P4 sequence (human) (UniProt P01241+P02679); experiment: SPR (Biacore X-100), P20.1 antibody-immobilized sensor chip, fusion protein as analyte at 20 µL/min [c]
[3] = biological target: T2, hGH-BAS-γC-P4×5, human growth factor/human fibrinogen γ chain C domain fusion protein with 5 repeats of the P4 sequence (human); experiment: sandwich ELISA, capture by anti-hGH antibody HGH-B, detection by biotinylated P20.1 antibody at 5 µg/mL
[4] = biological target: T1, hGH-BAS-γC-P4×3, human growth factor/human fibrinogen γ chain C domain fusion protein with 3 repeats of the P4 sequence (human); experiment: as above
[5] = biological target: T1, hGH-BAS-γC-P4×3, human growth factor/human fibrinogen γ chain C domain fusion protein with 3 repeats of the P4 sequence (human); experiment: pull-down from culture supernatant with P20.1 antibody-Sepharose, elution with eluents (1) to (8) of paragraph 190, SDS gel electrophoresis [b]
[6] = biological target: T2, hGH-BAS-γC-P4×5, human growth factor/human fibrinogen γ chain C domain fusion protein with 5 repeats of the P4 sequence (human); experiment: sandwich ELISA, capture by P20.1 antibody immobilized at 10 µg/mL, detection by rabbit antiserum against the BAS sequence and peroxidase-labeled anti-rabbit IgG, dilutions of cell supernatant
[7] = biological target: T1, hGH-BAS-γC-P4×3, human growth factor/human fibrinogen γ chain C domain fusion protein with 3 repeats of the P4 sequence (human); experiment: as above
[8] = biological target: T2, hGH-BAS-γC-P4×5, human growth factor/human fibrinogen γ chain C domain fusion protein with 5 repeats of the P4 sequence (human); experiment: sandwich ELISA, capture by P20.1 antibody coated at 10 µg/mL, detection by rabbit anti-BAS serum
[9] = biological target: T1, hGH-BAS-γC-P4×3, human growth factor/human fibrinogen γ chain C domain fusion protein with 3 repeats of the P4 sequence (human); experiment: as above
[10] = biological target: T2, hGH-BAS-γC-P4×5, human growth factor/human fibrinogen γ chain C domain fusion protein with 5 repeats of the P4 sequence (human); experiment: sandwich ELISA (legend of FIG. 22)
[11] = biological target: T1, hGH-BAS-γC-P4×3, human growth factor/human fibrinogen γ chain C domain fusion protein with 3 repeats of the P4 sequence (human); experiment: sandwich ELISA (legend of FIG. 22)
[12] = biological target: T2, hGH-BAS-γC-P4×5, human growth factor/human fibrinogen γ chain C domain fusion protein with 5 repeats of the P4 sequence (human); experiment: sandwich ELISA, capture by immobilized anti-hGH antibody HGH-B, detection by biotinylated P20.1 antibody (5 µg/mL) and peroxidase-labeled streptavidin, absorbance at 405 nm, dilutions of cell supernatant
[13] = biological target: T1, hGH-BAS-γC-P4×3, human growth factor/human fibrinogen γ chain C domain fusion protein with 3 repeats of the P4 sequence (human); experiment: as above
[14] = biological target: T2, hGH-BAS-γC-P4×5, human growth factor/human fibrinogen γ chain C domain fusion protein with 5 repeats of the P4 sequence (human); experiment: sandwich ELISA (legend of FIG. 21)
[15] = biological target: T1, hGH-BAS-γC-P4×3, human growth factor/human fibrinogen γ chain C domain fusion protein with 3 repeats of the P4 sequence (human); experiment: sandwich ELISA (legend of FIG. 21)
[16] = biological target: T1, hGH-BAS-γC-P4×3, human growth factor/human fibrinogen γ chain C domain fusion protein with 3 repeats of the P4 sequence (human); experiment: SPR (Biacore X-100), P20.1 antibody-immobilized sensor chip, fusion protein as analyte at 20 µL/min [b]
[17] = biological target: T2, hGH-BAS-γC-P4×5, human growth factor/human fibrinogen γ chain C domain fusion protein with 5 repeats of the P4 sequence (human); experiment: SPR (Biacore X-100), P20.1 antibody-immobilized chip, fusion protein flowed over

Measured: binding

B1: P20.1 antibody (monoclonal antibody produced by mouse-mouse hybridoma P20.1, FERM BP-11061) (antibody, mouse IgG1, V domains shown)
VH: QIQLVQSGPEVQKPGETVRISCKASGYTFTTAGMQWVQKMPGKSLKWIGWINTRSGVPKYAEDFKGRFAFSLETSASIAYLHINNLKNEDTATYFCAREGPGFVYWGQGTLVTVSA
VL: QTVVTQESALTTSPGETVTLTCRSSTGVVTTSNYANWVQEKPDHLFTGLIVGTNNRVPGVPPRFSGSLIGDKAALTITGAQTEDEAIYFCALWYSNHWVFGGGTKLTVL
notes: Biotinylated in the sandwich ELISA of 7-2-1 and coupled to CNBr-Sepharose in the pull-down and purification experiments; also called P20.1 Ab; monoclonal P20.1 antibody
binds: all assays above
